The source of these data is article PMC7531004 (Nature Communications, 2020).

Some peptides are written in HELM: one residue between dots, names in brackets for other building blocks, links after the first $.

The nature of this data set: general procedure: Fmoc solid-phase peptide synthesis; HMBA-TentaGel macrobeads (for 1); Fmoc-L-Trp(Boc)-HMBA-ChemMatrix resin (analogues); HATU/HOAt. As to conditions: whole synthesis; for isolated yield: over 32 steps, scale of the general procedure 20.9 umol (1), 250, 45.0 or 30.0 umol of S3 (analogues).

The substance “PEPTIDE1{[fo].V.G.A.[dL].A.[dL].V.[D-Asm].W.[dL].W.[dL].W.[dT].W.[Eta]}$$$$V2.0” yielded an isolated mass of 15.5 mg and an isolated yield of 54%.
For “PEPTIDE1{[fo].V.G.A.[dL].A.[dL].V.[dL].W.[dL].W.[dT].W.[dV].W.[Eta]}$$$$V2.0” the same measures were 3.70 mg and 13%.
Regarding “PEPTIDE1{[fo].V.G.A.[dL].A.[dV].V.[dT].W.[dL].W.[dL].W.[dL].W.[Eta]}$$$$V2.0”, the isolated yield amounted to 38%.
In the case of “PEPTIDE1{[fo].V.G.A.[dL].A.[dV].V.[dT].W.[dL].W.[dL].W.[dV].W.[Eta]}$$$$V2.0”, the isolated mass was 4.64 mg and the isolated yield is reported as 17%.
For “PEPTIDE1{[fo].V.G.A.[dL].A.[dV].V.[dV].W.[dV].W.[dL].W.[dV].W.[Eta]}$$$$V2.0” the same measures were 14.0 mg and 50%.
On the same counts, the results for “PEPTIDE1{[fo].V.G.A.[dL].A.[dV].V.[dV].W.[dV].W.[dV].W.[dV].W.[Eta]}$$$$V2.0” are 6.07 mg and 22%.
With “PEPTIDE1{[fo].V.G.A.[dT].A.[dL].V.[dL].W.[dT].W.[dL].W.[dV].W.[Eta]}$$$$V2.0”, the isolated mass is 70.5 mg and the isolated yield amounted to 30%.
For “PEPTIDE1{[fo].V.G.A.[dV].A.[dL].V.[dV].W.[dV].W.[dL].W.[dL].W.[Eta]}$$$$V2.0” the same measures were 7.03 mg and 25%.
Turning to “PEPTIDE1{[fo].V.G.A.[dV].A.[dV].V.[dV].W.[dL].W.[dL].W.[dL].W.[Eta]}$$$$V2.0”, the isolated yield was found to be 44%.
As to “PEPTIDE1{[fo].V.G.A.[dV].A.[dV].V.[dV].W.[dL].W.[dV].W.[dV].W.[Eta]}$$$$V2.0”, the isolated mass was 5.36 mg and the isolated yield is recorded as 19%.
